## Primary screen of a compound library

From ChEMBL document CHEMBL3988442, “University of Dundee, Small-Polar-MMV Screening Library” (2021).

Mtb cholesterol medium: 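Growth of Mycobacterium tuberculosis over 4 days (cholesterol / DPPC medium with tyloxapol); the read-out is not stated. Concentration: 50 µM. Higher reads as more growth inhibition (inferred: compounds with an IC50 in retests scored well above the rest). About 69,000 compounds were tested under these conditions; 0.54% (about 370) showed 50% or more at least once.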
Mtb glucose medium: 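Whole-cell growth test on Mycobacterium tuberculosis, read after 3 days in glucose-containing 7H9 medium; the read-out is not stated. Tested at 50 µM. Higher reads as more growth inhibition (inferred: compounds with an IC50 in retests scored well above the rest). About 69,000 compounds were tested under these conditions; 1.1% (about 760) showed 50% or more at least once.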

The filed quantity is “Percent Effect” (%). The controls that fix the scale are not given in the record; negative values are as filed. This is an unselected part of the compounds tested. Two or more numbers in one place are separate tests of the same structure; such repeats can differ widely. A dash means the value is not listed here; it may have been measured.

| # | compound | Mtb cholesterol medium | Mtb glucose medium |
|---|---|---|---|
| 1 | `Cc1cnc(N2CCCC(c3ccccc3)C2)nc1-c1ccnn1C` (configuration not stated) | 21.41 and 27.95 | 30.7 |
| 2 | `O=C(NCc1csc(Br)c1)N1CCOCC1` | 24.14 | 7.405 |
| 3 | `CC(C)C1CN(C(=O)c2cn3ccccc3n2)CCCN1CC1CC1` (configuration not stated) | 16.47 | -36.31 |
| 4 | `COc1ncccc1CNC(=O)Nc1cc(C)nn1C` | 2.634 | -24.79 |
| 5 | `NC(=O)c1ccn(COc2ccccc2Cl)n1` | 3.608 | 30.63 |
| 6 | `Cn1nc2c(cc1=O)CN(Cc1coc(-c3cccs3)n1)CC2` | -9.442 | 13.33 |
| 7 | `COc1cc(O)ccc1CN1CCN(C2CCc3ccccc3C2)CC1` (configuration not stated) | 17.63 | -14.92 and -1.696 |
| 8 | `COCCO[C@H]1CCN(C(=O)c2ccco2)[C@H]1Cc1cnn(C)c1` | -27.74 | -4.581 |
| 9 | `CCCc1cc(C(=O)N(C)Cc2ccc(OC)c3ncccc23)n(C)n1` | -10.25 and -10.6 | -0.4459 |
| 10 | `Cc1ccc(CC(=O)N2CCCC(c3cc(C)[nH]n3)C2)cn1` (configuration not stated) | 2.293 | 8.873 |
| 11 | `CSCCNC(=O)c1cc(Br)cn1C(C)C` | 11.04 | 5.451 and 11.23 |
| 12 | `COc1cccc(CCC(=O)N2CCCC(n3cc(C)cn3)C2)c1` (configuration not stated) | -9.548 | -10.31 |
| 13 | `CCN(CC)C(=O)Cn1cc(-c2nc(C(C)C)no2)nn1` | 15.15 | -14.42 |
| 14 | `Cc1cccc(C(=O)N2CCn3cc(CN4CCCCC4)nc3C2)n1` | 13.25 and -2.571 | -2.465 |
| 15 | `CCOc1ncccc1NC(=O)c1cc2c(s1)CCC2` | -20.3 | 4.167 and -2.825 |
| 16 | `CCN(CC)CCCN1CCC(NC(=O)OC(C)(C)C)CC1` | 13.01 | 20.46 |
| 17 | `COC(=O)CCC(=O)N1CCC2(CN(Cc3cccc(Cl)c3)C2)C1` | -8.013 and -25.41 | 3.376 |
| 18 | `COc1ccc(CN2CCC3(CC2)CCN(c2cnn(C)c2)C3=O)cc1.O=C(O)C(F)(F)F` | -3.278 | -11.39 |
| 19 | `N#Cc1cccc(NC2CC(=O)N(Cc3cccc(F)c3)C2)n1` (configuration not stated) | 13.27 | 9.802 |
| 20 | `Cc1ccc(OCCN2CCC(c3ccnn3CCO)CC2)cc1` | -16.51 | 4.483 |
| 21 | `COCCC(=O)N1CCN(CC2CC2)c2ccccc21` | 48.07 | 43.51 |
| 22 | `O=C(c1ccoc1)N1CCc2c(COCC3CC3)cncc2C1` | -5.987 | -27.31 |
| 23 | `Cc1ncsc1CCN(C)C(=O)c1c(O)cccc1O` | -26.7 and -2.233 | 11.63 |
| 24 | `O=C(O)C(F)(F)F.[H][C@]12CCC[C@@H](CNc3ncccn3)[C@@]1([H])CN(Cc1cc[nH]n1)C2` | -3.274 and 7.784 | 32.2 |
| 25 | `CCc1ccc(CN(C)c2cc(COC)nc3ccnn23)cc1` | 21.65 | 49.5 |
| 26 | `CN(C)C(=O)c1cccnc1SCc1ccccc1C#N` | -3.9 | -0.3017 |
| 27 | `CN(C)C(=O)c1cccc(C2CNCCN2C)c1` (configuration not stated) | 0.9538 and -1.501 | -15.37 |
| 28 | `O=C1CC2(CCN(S(=O)(=O)c3cccs3)C2)CN1c1ccccc1` (configuration not stated) | 6.658 | 6.212 |
| 29 | `O=S(=O)(c1ccc(F)cc1)N1CCCn2cnc(CN3CCCC3)c2C1` | -11.23 | 14.03 and 3.411 |
| 30 | `[H][C@]12CN(C(=O)OCCOC)CCN1C[C@@H](CO)[C@@H]2c1ccccc1` | 12.23 | 12.1 |
| 31 | `CNc1nc(CNC(=O)Nc2cc(Cl)ccc2F)cs1` | 5.687 | 13.76 |
| 32 | `CCS(=O)(=O)N1CCCC2(COCCN(c3cnccn3)C2)C1.O=C(O)C(F)(F)F` (configuration not stated) | -11.5 | -5.449 |
| 33 | `CN(C)CCNC(=O)c1ccc(OC2CCN(S(C)(=O)=O)CC2)c(Cl)c1` | 0.8634 | 28.33 |
| 34 | `Cc1nc(C)c(CC(=O)N2C[C@@H](C(=O)O)[C@H](c3ccccc3C)C2)s1` | -4.862 and 2.425 | -4.166 and 1.997 |
| 35 | `COC(=O)c1cc(C(=O)N2CCc3ccc(F)cc3C2C)ccn1` (configuration not stated) | -6.49 and -6.701 | -9.706 and -3.452 |
| 36 | `Cc1nn(C)c(Cl)c1C1CCCN1C(=O)c1cc(C2CC2)on1` (configuration not stated) | 13.33 | 25.47 and 1.738 |
| 37 | `CN1N=C(C(=O)NCc2ccc3c(c2)CCCN3C)CCC1=O` | 4.742 | 12.25 |
| 38 | `CS(=O)(=O)N1CCC(n2nnn(-c3ccccc3)c2=O)CC1` | -6.532 and -7.236 | -7.603 |
| 39 | `Cc1cccc(CN(Cc2ccccc2)Cc2nccs2)n1` | 3.759 | 7.71 and 5.652 |
| 40 | `CN1CCN(CCc2ncnn2-c2ccc3c(c2)OCO3)CC1` | - | 17.94 |
| 41 | `CCOCC1CN(CC2CC2)Cc2nn(C)cc21.O=C(O)C(F)(F)F` (configuration not stated) | -2.372 | 8.981 |
| 42 | `CC(NC(=O)c1cccc(CN2CCN(C)CC2)c1)c1nccs1` (configuration not stated) | -0.967 | 28.32 |
| 43 | `Fc1cccc(CNCC2Cn3nncc3CO2)c1` (configuration not stated) | 14.19 | -2.851 and 9.894 |
| 44 | `CC(Cn1cccn1)NC(=O)NCCc1ccc(Cl)s1` (configuration not stated) | 1.737 | -1.505 |
| 45 | `O=C(O)C(F)(F)F.[H][C@@]12CC(COCc3cccnc3)C[C@@]1([H])N(S(=O)(=O)C1CC1)CCO2` (some centres not stated) | -8.026 | -5.327 |
| 46 | `CCn1ncc2c1CCCC2NCc1ccc2c(c1)CCO2` (configuration not stated) | -14.09 | 0.1894 |
| 47 | `CCc1nc2c(s1)C(N(C)C(=O)c1csnn1)CCC2` (configuration not stated) | 9.924 | 21.87 |
| 48 | `COCc1c(Cl)cccc1NC(=O)NCc1cccc(N(C)C)n1` | 6.171 | 15.67 |
| 49 | `COCCCN1CC2(CCN(Cc3cc(C(C)C)no3)CC2)CC1=O` | -2.259 and 17.31 | 9.796 |
| 50 | `Cc1nc(C)c(C(=O)N2CCc3[nH]nc(COc4ccccc4)c3C2)s1` | 0.001932 | 19.92 |
| 51 | `NCCO[C@H]1C[C@@H](O)C12CCN(C1Cc3ccccc3C1)CC2` | -4.988 | -4.341 and -30.69 |
| 52 | `Cc1oc(C(=O)O)cc1S(=O)(=O)Nc1ccc(Cl)cc1F` | -18.84 | 5.517 |
| 53 | `O=C(CCc1nc2cc(Br)cnc2[nH]1)NCc1cccnc1` | 7.275 | 15.18 |
| 54 | `Cc1ccsc1CNC(=O)CCc1c(C)nc2cc(O)nn2c1C` | -9.264 | -3.467 |
| 55 | `Cc1ccc2c(c1)C1(CCN(C(N)=O)CC1)CN2C(=O)N(C)C` | -17.01 | 3.295 |
| 56 | `Cc1ccc(N2CCC(C(=O)O)(n3ccc(C(C)C)n3)CC2)nn1` | -0.5399 | 46.61 |
| 57 | `CCCN1C(=O)c2ccccc2C1OC` (configuration not stated) | -24.69 | -6.642 |
| 58 | `CC1(C)CN(C(=O)c2occc2COc2cccc(C#N)c2)CCO1` | -4.422 | 17.05 |
| 59 | `CCc1c(C)sc2ncnc(N3C[C@H](O)[C@@H](N4CCCC4)C3)c12` | -10.52 | -11.19 |
| 60 | `CNc1ccnc(NCC(=O)Nc2cc(C)ccc2OC)n1` | -4.234 | -15.31 |
| 61 | `N#Cc1ccc(NCCC(=O)N2CCCc3ccccc32)nc1` | -25.11 | -8.389 |
| 62 | `CN1C(=O)CCN(C(=O)C2CCCCC2)c2ccccc21` | -14.65 | 24.3 and 3.248 |
| 63 | `Cc1cnn(C2CCCN(C(=O)c3cc[nH]n3)C2)c1` (configuration not stated) | -12.88 | -0.7163 and 0.1233 |
| 64 | `CC(C)(C)n1ncc2c(=O)[nH]c(N3CC(O)C3)nc21` | 16.49 | 15.59 |
| 65 | `CCc1c(C)sc2nc3n(CCN(C)C)nc(SC)n3c(=O)c12` | -19.5 | -5.404 |
| 66 | `NC(=O)C(CNC(=O)CCc1ccccc1)Cc1ccc(F)cc1` (configuration not stated) | 3.974 | 5.509 |

Once more, the final 5:

compound	Mtb cholesterol medium	Mtb glucose medium
CN1C(=O)CCN(C(=O)C2CCCCC2)c2ccccc21	-14.65	24.3 and 3.248
Cc1cnn(C2CCCN(C(=O)c3cc[nH]n3)C2)c1 (configuration not stated)	-12.88	-0.7163 and 0.1233
CC(C)(C)n1ncc2c(=O)[nH]c(N3CC(O)C3)nc21	16.49	15.59
CCc1c(C)sc2nc3n(CCN(C)C)nc(SC)n3c(=O)c12	-19.5	-5.404
NC(=O)C(CNC(=O)CCc1ccccc1)Cc1ccc(F)cc1 (configuration not stated)	3.974	5.509